The other results are listed elsewhere or left out. These are further read-outs of the screen, such as a control signal, another cell line or another target. No call is given for them. The list favours compounds with an active or inconclusive main result. Potencies come from curve fits of mixed quality, noted in brackets.

A short description of this experiment: qHTS Assay for Lipid Storage Modulators in Drosophila S3 Cells.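 On cell number change: cells counted by Cell Tracker Red CMTPX staining in the red channel.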 The note with it: BODIPY lipid droplet fluorescence, 18-24 h; for cell number change: measured here: cell count max response, cells fed with added oleic acid. A digest of the protocol:
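Drosophila S3 cells got compounds at several concentrations plus oleic acid (400 uM solution). Laser-scanning cytometry with 488 nm excitation read lipid droplets at 500-530 nm and cells at 575-640 nm. Percent activity was relative to 20 uM Triacsin C.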
Background: In qHTS, concentration-response curves come from the screen itself.

Where [1] appears, read: measured here: cell number channel AC50, cells fed with added oleic acid.
[2] abbreviates: measured here: lipid fluorescence (Fed channel) AC50, cells fed with added oleic acid.

In general, AC50 refers to the concentration giving half of the maximal activity seen. High values mean weaker potency, low ones greater potency. With `O=C(CN(CC1CCCO1)C(=O)CCC(=O)Nc1nccs1)NCC1CCCO1` (stereo not drawn), the cell number change stood at 36.5%. Moreover, the AC50 under setting [1] was 29.1 µM [rising, single point]. The AC50 under setting [2] was 29.1 µM [rising, single point].

Regarding `CCCN1Cc2cccc(C(=O)Nc3ccc(-c4nc5ccccc5[nH]4)cc3)c2C1=O`, the cell number change came out at 42.6%. The AC50 under setting [1] is 7.31 µM [rising, partial curve]. Also, the AC50 under setting [2] is 0.103 µM [falling, full curve, poor fit].

On to `Cc1cc(Br)ccc1SCC(=O)OCC(=O)N1CCN(C(=O)c2ccco2)CC1`, for which the cell number change turned out to be 0.97%. Under setting [2], the AC50 was 0.411 µM [rising, full curve].

Take `COc1ccc(/C=N/NC(=O)c2cccc(NC(=O)c3ccccc3)c2)c(C(=O)O)c1OC`: the cell number change amounted to 31.6%. Besides, under setting [1], the AC50 is 3.66 µM [rising, partial curve]. For the same molecule, under setting [2], the AC50 was 1.84 µM [rising, partial curve, poor fit].

Take `O=[N+]([O-])c1cc(-n2cnnn2)ccc1N1CCC(Cc2ccccc2)CC1`: the cell number change is -52.3%. For the same molecule, the AC50 under setting [1] was 18.4 µM [falling, single point]. For the same molecule, the AC50 under setting [2] is 18.4 µM [falling, single point].

As to `O=C(O)CNC(=O)CC1S/C(=N/N=C2/NC(=O)CS2)NC1=O` (stereo not drawn), the cell number change is -66%. Further, the AC50 under setting [1] is 5.17 µM [falling, full curve, poor fit]. Moreover, the concentration at half-maximal activity (AC50) under setting [2] is 4.61 µM [falling, partial curve].

As to `O=S(=O)(NCc1csc(-c2cccnc2)n1)c1ccc(Cl)s1`, the cell number change was determined as 58.7%. For the same molecule, under setting [1], the AC50 was 29.1 µM [rising, single point]. Moreover, the AC50 under setting [2] is 10.3 µM [rising, partial curve].

As for `Cc1nc2ccc(S(=O)(=O)NCC(=O)Nc3ccc(F)cc3)cc2s1`, the AC50 under setting [2] is 6.51 µM [rising, single point].

For the molecule `Oc1cc(NCCc2cccnc2)cc2cccnc12`, the cell number change is 23.5%. Besides, under setting [2], the AC50 is 11.6 µM [rising, partial curve, poor fit].

As to `CCCN(CCC)CCCNc1ccc2nnc(-c3ccc(F)cc3)n2n1`, the cell number change came to 45.2%. In addition, under setting [1], the AC50 was 23.1 µM [rising, single point].

`O=C(Cc1n[nH]c(=O)[nH]c1=O)N/N=C/c1c(O)ccc2ccccc12`: the cell number change was -37.9%. Moreover, the AC50 under setting [1] is 0.231 µM [falling, full curve, poor fit]. For the same molecule, the AC50 under setting [2] is 0.206 µM [falling, full curve, poor fit].

On to `CCOC(=O)N1CCN(CC(=O)N2c3ccccc3CCc3ccccc32)CC1`, for which the cell number change stood at 16.9%.

On to `CC1(C)CC(=O)C2=C(C1)NCN(Cc1ccc3c(c1)OCO3)C2`, for which the cell number change was found to be 38.1%. The AC50 under setting [1] is 16.4 µM [rising, single point]. Further, the AC50 under setting [2] was 20.6 µM [rising, partial curve].

Take `Oc1ccccc1/C=N/[n+]1ccccc1`: the cell number change was -17.3%. Further, the AC50 under setting [2] was 0.517 µM [falling, full curve].

Consider `COc1cccc(-n2nnc3c(=O)n(Cc4cccc(F)c4)cnc32)c1`, for which the cell number change was -35.2%. Further, under setting [1], the AC50 is 20.6 µM [falling, partial curve]. Moreover, the AC50 under setting [2] was 20.6 µM [falling, single point].

For `CCOc1ccccc1C(=O)Nc1ccsc1C(=O)OC`, the cell number change worked out at 27.9%. In addition, the AC50 under setting [2] was 1.64 µM [rising, full curve].

Regarding `O=C(COC(=O)CNS(=O)(=O)c1ccc(F)c(F)c1F)Nc1ccc(OC(F)F)cc1`, the cell number change worked out at 3.23%.

For the molecule `Cc1ccc(OCCn2cnc3ccccc3c2=O)c([N+](=O)[O-])c1`, the cell number change is -56.1%. Also, the AC50 under setting [1] is 29.1 µM [falling, partial curve, poor fit].

For `COC(=O)CCC(=O)c1ccn(S(=O)(=O)c2ccccc2)c1`, the cell number change amounted to 14.3%. Also, the AC50 under setting [2] was 13 µM [rising, partial curve, poor fit].

Regarding `C/C(CC(=O)Nc1cccc(C(F)(F)F)c1)=N\NC(=O)c1ccncc1`, under setting [2], the AC50 is 2.82 µM [falling, partial curve].

Take `COc1cc(-n2c(C)nc3cc(C(=O)NCC4CCCO4)ccc32)cc(OC)c1OC` (stereo not drawn): the cell number change is 11.6%.

`Cc1ccccc1NC(=O)c1c(C)nn(-c2ccccc2)c1Cl`: the cell number change was 41%. Also, the AC50 under setting [1] is 16.4 µM [rising, single point].

`Cc1cc(C)cc(OCC(=O)OCC(=O)N2CCc3ccccc32)c1`: the cell number change was -28.5%. For the same molecule, under setting [1], the AC50 was 3.66 µM [falling, full curve, poor fit].

Consider `CCCCCCCC(=O)N/N=C(/C)c1c(O)cc(C)oc1=O`, for which the cell number change amounted to 9.96%. For the same molecule, the AC50 under setting [2] was 6.51 µM [rising, single point].

`CCCc1ccc(C(=O)NNc2cc(Cl)ccc2Cl)cc1`: the cell number change is -24.7%. The AC50 under setting [2] was 1.03 µM [falling, full curve, poor fit].

Take `CCCc1cc(=O)oc2cc(OCC(=O)N(C)C)c(Cl)cc12`: the cell number change was -15.3%. Further, the AC50 under setting [2] is 6.51 µM [rising, partial curve, poor fit].

For the molecule `O=S1(=O)N[C@@H](CC2=CCCCC2)C2CCCCC2O1` (stereo partly drawn), the cell number change was determined as 16.5%.

Regarding `COc1ccccc1CNC(=O)COC(=O)CCN=C1NS(=O)(=O)c2ccccc21`, the AC50 under setting [1] is 4.61 µM [falling, single point] and the AC50 under setting [2] was 13 µM [falling, partial curve].

With `CCOP(=O)(c1ccc(N(C)C)cc1)C(O)c1ccccc1OC` (stereo not drawn), the cell number change was -11%.

On to `C=CCn1c(COc2ccc(F)cc2)nnc1SCC(=O)NC1CCCC1`, for which the cell number change is -46.8%. Moreover, the AC50 under setting [1] was 46.1 µM [falling, single point]. Besides, the AC50 under setting [2] was 5.8 µM [falling, partial curve].

As for `Cc1cc(OCC(=O)Nc2ccc3c(c2)OCCO3)cc(C)c1Cl`, the cell number change worked out at 19.9%.

For `O=C(NCc1ccccn1)c1ccc(COc2ccc(Cl)cc2)o1`, the cell number change was -5.7%. The concentration at half-maximal activity (AC50) under setting [2] is 0.103 µM [rising, full curve, poor fit].

On to `Cc1ccc2[nH]cc(CCNC(=O)C3CCCO3)c2c1` (stereo not drawn), for which the cell number change was -9.19%. Also, the AC50 under setting [2] is 18.4 µM [rising, partial curve].

For the molecule `CCCC(C(=O)NC(C)(C)C)N(Cc1ccc(F)cc1)C(=O)c1snc(C(N)=O)c1N` (stereo not drawn), the cell number change was determined as 5.47%.

Take `COc1cc(/C=C/C(=O)N2CCN(c3ccccn3)CC2)cc(OC)c1OC`: the half-maximal activity concentration (AC50) under setting [2] was 18.4 µM [falling, partial curve].

For `COc1ccc(/C=C/C(=O)c2cccc(-n3cnnn3)c2)cc1O`, the cell number change amounted to 11.2%. For the same molecule, the AC50 under setting [1] was 0.651 µM [rising, partial curve, poor fit].

For the molecule `CC1CCCCC1NC(=O)C1Cc2ccccc2CN1S(C)(=O)=O` (stereo not drawn), the cell number change was -4.05%. For the same molecule, under setting [2], the AC50 was 2.06 µM [falling, full curve, poor fit].

Consider `CN(C)CCCNC(=O)Cc1ccc(Br)cc1`, for which the cell number change was -22.9%. Further, the AC50 under setting [2] is 2.06 µM [falling, full curve, poor fit].

As to `COc1ccc(OC)c(C2=NOC(C(=O)NCCN3CCOCC3)C2)c1` (stereo not drawn), the AC50 under setting [2] is 6.51 µM [falling, partial curve, poor fit].

Consider `OC(c1nc2ccccc2[nH]1)C(O)C(O)C(O)c1nc2ccccc2[nH]1` (stereo not drawn), for which the cell number change was -16%. In addition, the AC50 under setting [2] is 4.11 µM [falling, full curve, poor fit].

On to `COc1ccc(-n2nc3cc(C)c(NC(=O)C(C)C)cc3n2)cc1`, for which the cell number change was determined as 1.91%. For the same molecule, the AC50 under setting [2] was 0.58 µM [rising, single point].

As for `CNS(=O)(=O)c1cccc(C(=O)OCc2cc(Cl)cc3c2OCOC3)c1`, the cell number change is -9.85%.

Consider `O=C(CN1C(=O)/C(=C\c2cccc(Br)c2)Oc2ccccc21)NCCCN1CCOCC1`, for which the cell number change turned out to be 16.3%. Moreover, the AC50 under setting [2] is 6.51 µM [rising, single point].

As to `O=C(NNc1ccccc1)Nc1ccccc1F`, the cell number change was 19.2%.

As to `C=CCN1C(=O)/C(=c2\sc3nc(=O)c(Cc4ccccc4Cl)nn3c2=O)c2ccccc21`, the cell number change was 21.4%. Moreover, under setting [1], the AC50 is 0.461 µM [falling, single point]. Besides, under setting [2], the AC50 was 0.517 µM [falling, single point].

On to `c1ccc(COc2ccc(OCCn3cncn3)cc2)cc1`, for which the cell number change was -24.1%.

Regarding `CN(C)S(=O)(=O)c1cccc(NC(=O)COC(=O)c2ccc3c(c2)OCO3)c1`, the cell number change turned out to be 22.1%. The AC50 under setting [2] is 2.59 µM [rising, single point].

`COc1ccccc1C(=O)NC(=S)/C=C1/N(C)c2ccccc2C1(C)C`: the cell number change was -75.5%. Further, the AC50 under setting [1] is 29.1 µM [falling, single point]. In addition, the AC50 under setting [2] was 29.1 µM [falling, single point].

With `CCOC(=O)Cc1csc(NC(=O)/C=C\c2ccccc2)n1`, the cell number change was -16.3%. For the same molecule, under setting [2], the AC50 was 6.51 µM [falling, single point].

`COc1ccc(-c2nn(-c3ccccc3)cc2C(=O)N2CCOCC2)cc1`: the cell number change was 20.3%. Also, the AC50 under setting [2] is 0.731 µM [falling, single point].

Turning to `CCOc1ccccc1NC(=O)COC(=O)c1cnc(C)cn1`, the cell number change was -24.5%. In addition, the AC50 under setting [1] was 0.13 µM [falling, full curve]. Also, the AC50 under setting [2] is 0.164 µM [falling, full curve, poor fit].

Take `COc1ccc(S(=O)(=O)N2CCN(C(=O)C3COc4ccccc4O3)CC2)cc1` (stereo not drawn): the cell number change turned out to be 7.63%. In addition, the AC50 under setting [2] is 3.66 µM [rising, single point].

In the case of `Cc1ccc(NC(=O)CSCC(=O)N2CCN(C(=O)c3ccco3)CC2)cc1`, the cell number change was -9.52%. In addition, the AC50 under setting [2] was 3.26 µM [falling, partial curve].

On to `O=C(CCCOc1ccc(Cl)cc1Cl)N1CCCc2ccccc21`, for which the cell number change worked out at 71.5%. Moreover, the AC50 under setting [1] is 2.59 µM [rising, full curve]. Also, the AC50 under setting [2] was 6.51 µM [rising, single point].

`O=C(O)c1ccc(Nc2nc(-c3cc4ccccc4oc3=O)cs2)cc1O`: the AC50 is 6.51 µM [rising, single point] under setting [1] and 6.51 µM [rising, single point] under setting [2].

Consider `CCn1nc(CC(=O)Nc2nnc(CC(=O)N3CCCC3)s2)c2ccccc2c1=O`, for which the cell number change came to 0.912%. The AC50 under setting [2] was 0.0517 µM [falling, full curve, poor fit].

`CCOc1ccc(CCNC(=O)COC(=O)c2ccccc2O)cc1OCC`: the cell number change is -48%. In addition, the AC50 under setting [1] is 32.6 µM [falling, partial curve, poor fit]. Moreover, under setting [2], the AC50 is 16.4 µM [falling, partial curve, poor fit].

As to `O=C1CC(N2CCC(c3nc4ccccc4[nH]3)CC2)C(=O)N1c1ccccc1F` (stereo not drawn), the cell number change was -26.3%. For the same molecule, the AC50 under setting [1] is 0.708 µM [falling, full curve, poor fit]. Also, the AC50 under setting [2] is 22.4 µM [falling, partial curve, poor fit].

The record behind these values is PubChem BioAssay AID2685 (National Center for Advancing Translational Sciences (NCATS), 2010).
